Results taken from publication PMC9832388.
No constants are given. Whether binding was seen depends on the method and setting. Some entries that bind do so weakly or less than the wild type.

Chains of the proteins cited; added tags and fusions are not shown. Lines headed by an entry give the natural chain unless they say otherwise; changes in a name come on top.
UniProt P01024: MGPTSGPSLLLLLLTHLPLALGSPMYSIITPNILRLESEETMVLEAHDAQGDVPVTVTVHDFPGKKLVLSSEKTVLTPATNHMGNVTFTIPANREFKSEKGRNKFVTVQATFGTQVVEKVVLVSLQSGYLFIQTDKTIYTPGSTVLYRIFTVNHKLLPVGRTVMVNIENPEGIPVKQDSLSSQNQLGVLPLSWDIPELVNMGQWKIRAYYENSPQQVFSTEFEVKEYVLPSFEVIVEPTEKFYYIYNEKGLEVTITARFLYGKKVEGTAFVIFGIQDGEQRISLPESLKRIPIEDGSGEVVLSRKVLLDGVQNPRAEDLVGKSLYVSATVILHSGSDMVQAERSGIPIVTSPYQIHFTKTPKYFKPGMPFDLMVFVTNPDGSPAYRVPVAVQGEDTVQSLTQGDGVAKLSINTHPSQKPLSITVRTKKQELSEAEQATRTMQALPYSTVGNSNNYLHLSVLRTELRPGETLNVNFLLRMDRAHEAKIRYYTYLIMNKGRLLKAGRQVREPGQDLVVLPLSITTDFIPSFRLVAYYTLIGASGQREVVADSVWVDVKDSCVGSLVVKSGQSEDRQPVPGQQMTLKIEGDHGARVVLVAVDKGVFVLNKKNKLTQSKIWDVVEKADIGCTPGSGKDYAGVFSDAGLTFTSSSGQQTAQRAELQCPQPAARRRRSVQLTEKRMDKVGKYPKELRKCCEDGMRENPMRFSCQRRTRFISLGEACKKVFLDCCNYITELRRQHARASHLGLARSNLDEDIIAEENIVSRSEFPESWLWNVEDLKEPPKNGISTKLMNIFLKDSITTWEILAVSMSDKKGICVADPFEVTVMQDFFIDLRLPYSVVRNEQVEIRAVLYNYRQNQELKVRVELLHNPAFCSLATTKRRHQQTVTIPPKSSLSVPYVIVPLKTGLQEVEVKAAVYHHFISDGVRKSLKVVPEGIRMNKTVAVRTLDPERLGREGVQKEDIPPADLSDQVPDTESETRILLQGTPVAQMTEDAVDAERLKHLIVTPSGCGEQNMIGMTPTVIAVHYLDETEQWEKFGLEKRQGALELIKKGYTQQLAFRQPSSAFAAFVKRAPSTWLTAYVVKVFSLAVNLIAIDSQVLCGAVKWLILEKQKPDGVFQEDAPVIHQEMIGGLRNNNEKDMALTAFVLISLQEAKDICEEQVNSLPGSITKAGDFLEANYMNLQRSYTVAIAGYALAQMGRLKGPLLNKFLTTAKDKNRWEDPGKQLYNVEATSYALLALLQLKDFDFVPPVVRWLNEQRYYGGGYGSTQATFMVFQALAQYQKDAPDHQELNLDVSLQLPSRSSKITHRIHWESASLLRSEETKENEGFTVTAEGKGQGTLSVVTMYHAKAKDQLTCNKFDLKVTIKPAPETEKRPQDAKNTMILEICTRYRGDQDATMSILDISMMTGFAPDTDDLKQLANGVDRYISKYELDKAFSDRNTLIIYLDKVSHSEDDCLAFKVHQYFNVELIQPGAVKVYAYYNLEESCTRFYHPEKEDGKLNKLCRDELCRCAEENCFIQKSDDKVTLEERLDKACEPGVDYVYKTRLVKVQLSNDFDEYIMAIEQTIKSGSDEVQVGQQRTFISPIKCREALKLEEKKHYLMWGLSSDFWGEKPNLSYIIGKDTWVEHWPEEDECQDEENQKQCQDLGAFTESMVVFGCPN
UniProt P05156: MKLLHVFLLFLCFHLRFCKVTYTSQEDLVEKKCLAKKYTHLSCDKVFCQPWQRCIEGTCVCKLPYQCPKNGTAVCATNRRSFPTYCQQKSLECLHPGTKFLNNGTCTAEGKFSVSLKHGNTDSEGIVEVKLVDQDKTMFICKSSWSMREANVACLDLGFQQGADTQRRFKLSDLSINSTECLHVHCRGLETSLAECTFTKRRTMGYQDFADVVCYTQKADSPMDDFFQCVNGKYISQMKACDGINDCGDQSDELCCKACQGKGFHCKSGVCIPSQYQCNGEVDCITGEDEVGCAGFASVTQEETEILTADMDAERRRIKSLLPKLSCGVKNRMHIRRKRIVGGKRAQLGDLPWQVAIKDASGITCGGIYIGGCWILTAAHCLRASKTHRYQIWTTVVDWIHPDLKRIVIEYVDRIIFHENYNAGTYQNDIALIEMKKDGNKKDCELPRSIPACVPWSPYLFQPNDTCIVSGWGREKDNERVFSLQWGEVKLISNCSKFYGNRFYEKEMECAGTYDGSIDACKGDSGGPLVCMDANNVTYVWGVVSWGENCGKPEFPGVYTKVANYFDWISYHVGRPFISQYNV

Tests used:
[1] = molecular target: C3b with FH-like protein 1 (FHL-1) (UniProt P01024); test: SPR; AP regulatory TMCs assembled on the chip with other cofactors (FHL-1, sCR1, MCP); conditions only in the supplement; both purified
[2] = molecular target: C3b with soluble complement receptor 1 (sCR1, CD35) (TP10) (UniProt P01024); test: as above

Q: How did the binding [1] turn out when “inactive FI (S525A FI) (from UniProt P05156 19-335; P05156 340-583) (enzyme)” was run?
A: binds

Q: What about the binding [2] of the same substance?
A: binds
